No constants are given. Whether binding was seen depends on the method and setting. In cells and extracts the contact can be indirect. Some results given as binding are weak or reduced against the parent protein; the word gives no strength. For some assays here: Where a sequence is shown, tags or fusion partners need not be part of it.
What was measured:
[1] = biological target: T1, recombinant Hisx7-V5-tagged Sgo1, unSUMOylated (S. cerevisiae) (UniProt Q08490); test: pull-down; product of in vitro SUMOylation (+ATP) or unmodified control (-ATP) of V5-Sgo1 held on anti-V5 Protein G Dynabeads, washed, incubated 2 h at 4°C with extract of sgo1Δ RTS1-9MYC yeast; binding buffer A (25 mM Hepes pH 7.5, 150 mM KCl, 2 mM MgCl2, 15% glycerol, 0.1% NP-40); anti-V5 and anti-Myc blots; only the target purified
T1 sequence: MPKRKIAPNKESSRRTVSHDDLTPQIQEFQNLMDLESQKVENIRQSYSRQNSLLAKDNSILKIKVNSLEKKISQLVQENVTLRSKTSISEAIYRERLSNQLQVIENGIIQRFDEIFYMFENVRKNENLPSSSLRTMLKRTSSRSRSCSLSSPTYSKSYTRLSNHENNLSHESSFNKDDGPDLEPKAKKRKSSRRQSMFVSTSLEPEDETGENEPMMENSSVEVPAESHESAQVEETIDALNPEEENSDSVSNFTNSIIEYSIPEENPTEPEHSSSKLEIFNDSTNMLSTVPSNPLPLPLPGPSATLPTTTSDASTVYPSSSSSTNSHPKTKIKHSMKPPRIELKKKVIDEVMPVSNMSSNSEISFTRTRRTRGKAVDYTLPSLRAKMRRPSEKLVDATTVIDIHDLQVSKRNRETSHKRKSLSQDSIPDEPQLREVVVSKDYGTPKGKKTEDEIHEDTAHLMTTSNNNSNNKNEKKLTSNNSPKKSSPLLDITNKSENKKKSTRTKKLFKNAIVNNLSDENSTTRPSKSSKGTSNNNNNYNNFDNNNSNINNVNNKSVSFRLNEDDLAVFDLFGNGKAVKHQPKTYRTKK

The chains behind the UniProt entries cited, without tags or fusion partners.
UniProt P38903: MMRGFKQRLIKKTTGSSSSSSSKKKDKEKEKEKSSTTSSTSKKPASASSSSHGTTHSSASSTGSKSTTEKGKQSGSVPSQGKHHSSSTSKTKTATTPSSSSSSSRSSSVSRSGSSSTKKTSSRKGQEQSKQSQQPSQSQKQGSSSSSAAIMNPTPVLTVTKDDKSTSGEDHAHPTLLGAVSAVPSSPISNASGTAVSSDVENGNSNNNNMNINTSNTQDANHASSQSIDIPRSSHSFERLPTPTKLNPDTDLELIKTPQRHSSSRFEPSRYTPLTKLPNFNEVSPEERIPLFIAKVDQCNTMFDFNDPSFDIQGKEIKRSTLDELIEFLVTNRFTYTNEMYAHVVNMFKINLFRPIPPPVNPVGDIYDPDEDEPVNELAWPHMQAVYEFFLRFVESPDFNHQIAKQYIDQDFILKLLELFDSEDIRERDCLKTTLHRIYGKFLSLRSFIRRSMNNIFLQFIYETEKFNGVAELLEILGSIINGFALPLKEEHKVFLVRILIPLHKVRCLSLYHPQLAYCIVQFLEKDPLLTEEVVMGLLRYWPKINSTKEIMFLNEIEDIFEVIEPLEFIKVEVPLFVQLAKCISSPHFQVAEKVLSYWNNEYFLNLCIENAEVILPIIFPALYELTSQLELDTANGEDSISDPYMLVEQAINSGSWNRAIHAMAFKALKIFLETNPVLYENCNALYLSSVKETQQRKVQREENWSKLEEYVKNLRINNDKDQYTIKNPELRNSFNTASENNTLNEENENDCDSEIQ

Sgo1-TAP (S. cerevisiae) = biological target: T2, Sgo1-TAP (S. cerevisiae) (UniProt Q08490); test: co-IP; Sgo1-TAP captured on rabbit IgG Dynabeads from benzonase-treated lysates of cycling cells grown at room temperature (wild type, siz1Δ siz2Δ, pCUP1-SIZ2, sgo1-4R, sgo1-3A); Rts1-9Myc by anti-Myc blot, Sgo1-TAP by PAP
T2 sequence: T1 sequence

Substance: Rts1-9Myc (from UniProt P38903 1-757)
- binding [1]: binds
- binding (Sgo1-TAP (S. cerevisiae)): binds

— paper PMC8094117
